This is an account of results in paper PMC3398031.

No constants are given. Whether binding was seen depends on the method and setting. Binding seen in cells or lysates may run through a third protein. Binding can be weak; no strength is given. Tags and fused reporters may be left off the sequences shown.

For the experiment, the target named is CXCR4-v1/v2 homodimer (CXCR4-venus(1-157) with CXCR4-venus(158-238), BiFC-reconstituted). Kind of experiment: split reporter + FRET or BRET; BiFC-BRET in HEK293 cells, 48 h after co-transfection: receptor pairs tagged with venus halves (v1/v2) as acceptor, Rluc-tagged protein as donor; Rluc alone as negative control.

B1: DRiP78-Rluc (Dopamine Receptor-interacting Protein 78 fused to Renilla luciferase) (protein, UniProt Q6Y2X3 1-702)
chain: MAQKHPGERGLYGAHHSGGASLRTLGPSVDPEIPSFSGLRDSAGTAPNGTRCLTEHSGPKHTQHPNPAHWLDPSHGPPGGPGPPRDAEDPDQSETSSEEESGVDQELSKENETGNQKDGNSFLSIPSACNCQGTPGIPEGPYSEGGNGSSSNFCHHCTSPALGEDELEEEYDDEESLKFPSDFSRVSSGKKPPSRRQRHRFPTKEDTREGGRRDPRSPGRHRLGRKRSQADKRKGLGLWGAEELCQLGQAGFWWLIELLVLVGEYVETCGHLIYACRQLKSSDLDLFRVWMGVWTGRLGGWAQVMFQFLSQGFYCGVGLFTRFLKLLGALLLLALALFLGFLQLGWRFLVGLGDRLGWRDKATWLFSWLDSPALQRCLTLLRDSRPWQRLVRIVQWGWLELPWVKQNINRQGNAPVASGRYCQPEEEVARLLTMAGVPEDELNPFHVLGVEATASDVELKKAYRQLAVMVHPDKNHHPRAEEAFKVLRAAWDIVSNAEKRKEYEMKRMAENELSRSVNEFLSKLQDDLKEAMNTMMCSRCQGKHRRFEMDREPKSARYCAECNRLHPAEEGDFWAESSMLGLKITYFALMDGKVYDITEWAGCQRVGISPDTHRVPYHISFGSRIPGTRGRQRATPDAPPADLQDFLSRIFQVPPGQMPNGNFFAAPQPAPGAAAASKPNSTVPKGEAKPKRRKKVRRPFQR
Consider B1, for which the binding entry is on record as “binds”.
